Values of other authors, collected in patent publication US20050090660A1, “2'-deoxy-L-nucleosides” (priority 1999, published 2005).
Some entries share one result that the patent states for a list of compounds. For at least one compound, name, drawing or mass did not settle the structure.

System: uninfected HepG2 cells
Details: read-out: ID50, toxicity, tested at up to 200 μM

Compound: Nc1ncnc2c1ncn2[C@@H]1C[C@@H](O)[C@H](CO)O1 [L-dAdo, 2′-deoxy-β-L-adenosine]
- IC50: > 200 µM
